According to patent publication US20130085131A1, “HETEROCYCLIC COMPOUNDS AND THEIR USES” (Amgen Inc., priority 2010, published 2013):
At least one structure is not confirmed: it was looked up by name or label, or the drawing left a doubt.

Legend:
U2OS EGFP-2XFYVE Cells = test: Class III PI(3)P Assay; format: cell-based; details: 10 uM, control
[1] = system: MDA MB468 Forkhead-DiversaGFP cells; test: Forkhead Translocation Assay; format: cell-based; details: 10 uM, control
CHO-IR-AKT1-EGFP Cells = test: AKT Membrane Ruffling Assay; format: cell-based; details: 10 uM, control
neutrophil migration = details: cited from earlier work
Class I PI 3-kinases = details: each of the Class I PI 3-kinases; read-out: IC50 values against each of the various Class I PI 3-kinases; cited from earlier work
[2] = system: neutrophil superoxide release; details: cited from earlier work

SMILES	PI(3)P on endosomes (U2OS EGFP-2XFYVE Cells)	Forkhead localisation [1]	AKT localisation (CHO-IR-AKT1-EGFP Cells)	neutrophil migration (neutrophil migration)	IC50 (Class I PI 3-kinases) [nM]	superoxide release [2]
COC[C@H]1OC(=O)c2coc3c2[C@@]1(C)C1=C(C3=O)[C@@H]2CCC(=O)[C@@]2(C)C[C@H]1OC(C)=O [wortmannin]	depleted from endosomes	nuclear	cytoplasmic	block	1000 to 10000	block
O=c1cc(N2CCOCC2)oc2c(-c3ccccc3)cccc12 [LY294002]				block	~1000	block
